Results: the supplement of paper PMC7666118
This is one part of the list.

Chains of the proteins cited; added tags and fusions are not shown. Lines headed by an entry give the natural chain unless they say otherwise; changes in a name come on top.
UniProt P30279, whole entry: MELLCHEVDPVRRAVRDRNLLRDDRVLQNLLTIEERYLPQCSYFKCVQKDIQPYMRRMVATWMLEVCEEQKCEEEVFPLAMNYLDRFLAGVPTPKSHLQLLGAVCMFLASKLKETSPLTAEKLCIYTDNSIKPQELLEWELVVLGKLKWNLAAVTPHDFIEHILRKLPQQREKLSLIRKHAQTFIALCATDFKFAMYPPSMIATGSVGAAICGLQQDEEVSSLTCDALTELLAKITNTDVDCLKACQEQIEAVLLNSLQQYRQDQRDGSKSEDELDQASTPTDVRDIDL
UniProt Q9Y281, whole entry: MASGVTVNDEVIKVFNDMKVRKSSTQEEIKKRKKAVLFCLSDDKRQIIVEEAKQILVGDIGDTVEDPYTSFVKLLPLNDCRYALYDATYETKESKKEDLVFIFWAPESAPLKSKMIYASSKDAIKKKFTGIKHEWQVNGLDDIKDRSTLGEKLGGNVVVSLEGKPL
UniProt Q9BT09: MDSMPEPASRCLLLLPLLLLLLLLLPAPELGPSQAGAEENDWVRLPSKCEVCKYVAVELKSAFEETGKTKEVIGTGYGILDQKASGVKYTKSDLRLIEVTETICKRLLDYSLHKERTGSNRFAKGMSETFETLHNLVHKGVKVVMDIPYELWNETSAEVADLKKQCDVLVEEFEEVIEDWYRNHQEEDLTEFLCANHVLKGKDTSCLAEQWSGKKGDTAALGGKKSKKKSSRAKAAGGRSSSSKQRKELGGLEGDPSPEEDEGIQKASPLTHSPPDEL
UniProt Q9H6E4: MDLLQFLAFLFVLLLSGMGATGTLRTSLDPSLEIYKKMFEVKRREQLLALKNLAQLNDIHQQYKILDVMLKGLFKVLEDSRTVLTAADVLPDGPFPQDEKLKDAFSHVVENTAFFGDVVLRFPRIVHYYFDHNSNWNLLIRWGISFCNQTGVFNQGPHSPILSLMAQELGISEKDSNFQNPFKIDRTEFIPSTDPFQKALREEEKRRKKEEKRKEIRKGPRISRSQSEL
UniProt Q96SZ6: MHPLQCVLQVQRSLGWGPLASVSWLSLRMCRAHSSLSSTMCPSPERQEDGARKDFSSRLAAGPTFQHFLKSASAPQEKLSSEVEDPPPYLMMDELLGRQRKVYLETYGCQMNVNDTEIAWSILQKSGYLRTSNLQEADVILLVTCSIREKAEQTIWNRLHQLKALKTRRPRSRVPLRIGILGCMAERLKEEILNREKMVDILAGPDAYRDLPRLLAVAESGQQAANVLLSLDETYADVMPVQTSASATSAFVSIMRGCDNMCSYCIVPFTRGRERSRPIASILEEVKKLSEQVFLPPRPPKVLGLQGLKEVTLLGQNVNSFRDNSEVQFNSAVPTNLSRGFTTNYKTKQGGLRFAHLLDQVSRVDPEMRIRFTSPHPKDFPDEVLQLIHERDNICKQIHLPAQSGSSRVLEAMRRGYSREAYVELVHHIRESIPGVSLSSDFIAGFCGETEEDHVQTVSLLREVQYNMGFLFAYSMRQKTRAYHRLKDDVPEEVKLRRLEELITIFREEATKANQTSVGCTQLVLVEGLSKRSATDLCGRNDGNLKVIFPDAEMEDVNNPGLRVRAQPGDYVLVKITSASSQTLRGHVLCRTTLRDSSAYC
UniProt Q7Z7K6: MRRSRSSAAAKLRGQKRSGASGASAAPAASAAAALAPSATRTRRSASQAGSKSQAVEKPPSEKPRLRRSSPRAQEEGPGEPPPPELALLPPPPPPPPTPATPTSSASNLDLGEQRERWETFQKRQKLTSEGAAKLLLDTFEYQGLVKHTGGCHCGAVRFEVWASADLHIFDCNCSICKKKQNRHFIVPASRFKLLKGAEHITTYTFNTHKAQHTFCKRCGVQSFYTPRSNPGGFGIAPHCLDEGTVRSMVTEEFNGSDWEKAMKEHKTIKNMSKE
UniProt Q05315: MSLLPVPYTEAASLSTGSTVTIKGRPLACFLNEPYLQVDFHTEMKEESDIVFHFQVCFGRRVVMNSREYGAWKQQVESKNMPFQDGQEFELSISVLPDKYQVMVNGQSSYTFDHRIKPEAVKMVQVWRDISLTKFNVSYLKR
UniProt Q9Y592: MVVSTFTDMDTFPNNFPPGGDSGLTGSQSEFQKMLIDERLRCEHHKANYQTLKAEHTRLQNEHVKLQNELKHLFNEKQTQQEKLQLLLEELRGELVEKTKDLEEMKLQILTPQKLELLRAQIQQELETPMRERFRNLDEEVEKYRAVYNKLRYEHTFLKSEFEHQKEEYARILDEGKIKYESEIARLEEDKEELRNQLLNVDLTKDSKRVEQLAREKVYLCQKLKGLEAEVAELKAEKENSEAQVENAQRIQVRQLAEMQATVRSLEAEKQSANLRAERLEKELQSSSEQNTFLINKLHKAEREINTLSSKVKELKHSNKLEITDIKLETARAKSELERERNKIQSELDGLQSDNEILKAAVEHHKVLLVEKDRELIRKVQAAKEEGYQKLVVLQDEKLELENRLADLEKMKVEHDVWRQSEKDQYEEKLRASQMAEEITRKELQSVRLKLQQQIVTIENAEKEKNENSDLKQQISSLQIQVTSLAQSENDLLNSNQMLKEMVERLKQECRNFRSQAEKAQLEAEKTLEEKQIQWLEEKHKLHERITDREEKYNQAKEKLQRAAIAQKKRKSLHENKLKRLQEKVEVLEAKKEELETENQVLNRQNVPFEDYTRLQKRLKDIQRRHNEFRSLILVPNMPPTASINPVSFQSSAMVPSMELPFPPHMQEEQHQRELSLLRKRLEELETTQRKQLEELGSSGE
UniProt Q9Y696: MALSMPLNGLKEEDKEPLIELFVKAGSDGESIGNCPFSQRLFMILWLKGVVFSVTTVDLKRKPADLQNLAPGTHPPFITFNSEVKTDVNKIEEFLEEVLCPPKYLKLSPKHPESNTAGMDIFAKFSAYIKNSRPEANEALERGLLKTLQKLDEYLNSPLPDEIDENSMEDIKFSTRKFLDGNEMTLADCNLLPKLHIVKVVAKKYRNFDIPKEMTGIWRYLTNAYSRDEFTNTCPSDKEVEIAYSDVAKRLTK
UniProt P35790, whole entry, looked up: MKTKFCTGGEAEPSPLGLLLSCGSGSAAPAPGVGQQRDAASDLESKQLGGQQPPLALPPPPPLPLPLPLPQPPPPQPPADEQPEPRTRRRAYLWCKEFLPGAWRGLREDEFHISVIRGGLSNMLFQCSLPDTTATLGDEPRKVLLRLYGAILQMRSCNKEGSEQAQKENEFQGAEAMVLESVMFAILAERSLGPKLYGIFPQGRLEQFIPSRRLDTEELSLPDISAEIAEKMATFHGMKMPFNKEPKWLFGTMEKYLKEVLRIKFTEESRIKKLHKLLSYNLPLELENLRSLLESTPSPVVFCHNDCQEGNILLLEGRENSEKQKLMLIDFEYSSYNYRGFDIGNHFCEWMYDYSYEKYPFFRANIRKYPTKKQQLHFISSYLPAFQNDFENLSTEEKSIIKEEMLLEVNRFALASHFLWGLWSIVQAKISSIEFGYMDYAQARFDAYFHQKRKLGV
UniProt Q8NCH0: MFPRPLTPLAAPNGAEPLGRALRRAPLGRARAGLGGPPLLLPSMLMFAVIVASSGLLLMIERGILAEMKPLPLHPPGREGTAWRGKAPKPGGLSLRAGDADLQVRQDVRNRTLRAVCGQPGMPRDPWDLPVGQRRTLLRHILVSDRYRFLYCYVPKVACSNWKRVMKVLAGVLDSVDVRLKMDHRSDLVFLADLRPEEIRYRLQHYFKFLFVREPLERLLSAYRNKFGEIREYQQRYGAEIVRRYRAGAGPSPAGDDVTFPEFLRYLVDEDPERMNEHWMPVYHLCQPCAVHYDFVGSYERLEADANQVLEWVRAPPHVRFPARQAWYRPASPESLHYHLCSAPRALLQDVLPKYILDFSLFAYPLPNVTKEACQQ
UniProt A5YKK6, whole entry: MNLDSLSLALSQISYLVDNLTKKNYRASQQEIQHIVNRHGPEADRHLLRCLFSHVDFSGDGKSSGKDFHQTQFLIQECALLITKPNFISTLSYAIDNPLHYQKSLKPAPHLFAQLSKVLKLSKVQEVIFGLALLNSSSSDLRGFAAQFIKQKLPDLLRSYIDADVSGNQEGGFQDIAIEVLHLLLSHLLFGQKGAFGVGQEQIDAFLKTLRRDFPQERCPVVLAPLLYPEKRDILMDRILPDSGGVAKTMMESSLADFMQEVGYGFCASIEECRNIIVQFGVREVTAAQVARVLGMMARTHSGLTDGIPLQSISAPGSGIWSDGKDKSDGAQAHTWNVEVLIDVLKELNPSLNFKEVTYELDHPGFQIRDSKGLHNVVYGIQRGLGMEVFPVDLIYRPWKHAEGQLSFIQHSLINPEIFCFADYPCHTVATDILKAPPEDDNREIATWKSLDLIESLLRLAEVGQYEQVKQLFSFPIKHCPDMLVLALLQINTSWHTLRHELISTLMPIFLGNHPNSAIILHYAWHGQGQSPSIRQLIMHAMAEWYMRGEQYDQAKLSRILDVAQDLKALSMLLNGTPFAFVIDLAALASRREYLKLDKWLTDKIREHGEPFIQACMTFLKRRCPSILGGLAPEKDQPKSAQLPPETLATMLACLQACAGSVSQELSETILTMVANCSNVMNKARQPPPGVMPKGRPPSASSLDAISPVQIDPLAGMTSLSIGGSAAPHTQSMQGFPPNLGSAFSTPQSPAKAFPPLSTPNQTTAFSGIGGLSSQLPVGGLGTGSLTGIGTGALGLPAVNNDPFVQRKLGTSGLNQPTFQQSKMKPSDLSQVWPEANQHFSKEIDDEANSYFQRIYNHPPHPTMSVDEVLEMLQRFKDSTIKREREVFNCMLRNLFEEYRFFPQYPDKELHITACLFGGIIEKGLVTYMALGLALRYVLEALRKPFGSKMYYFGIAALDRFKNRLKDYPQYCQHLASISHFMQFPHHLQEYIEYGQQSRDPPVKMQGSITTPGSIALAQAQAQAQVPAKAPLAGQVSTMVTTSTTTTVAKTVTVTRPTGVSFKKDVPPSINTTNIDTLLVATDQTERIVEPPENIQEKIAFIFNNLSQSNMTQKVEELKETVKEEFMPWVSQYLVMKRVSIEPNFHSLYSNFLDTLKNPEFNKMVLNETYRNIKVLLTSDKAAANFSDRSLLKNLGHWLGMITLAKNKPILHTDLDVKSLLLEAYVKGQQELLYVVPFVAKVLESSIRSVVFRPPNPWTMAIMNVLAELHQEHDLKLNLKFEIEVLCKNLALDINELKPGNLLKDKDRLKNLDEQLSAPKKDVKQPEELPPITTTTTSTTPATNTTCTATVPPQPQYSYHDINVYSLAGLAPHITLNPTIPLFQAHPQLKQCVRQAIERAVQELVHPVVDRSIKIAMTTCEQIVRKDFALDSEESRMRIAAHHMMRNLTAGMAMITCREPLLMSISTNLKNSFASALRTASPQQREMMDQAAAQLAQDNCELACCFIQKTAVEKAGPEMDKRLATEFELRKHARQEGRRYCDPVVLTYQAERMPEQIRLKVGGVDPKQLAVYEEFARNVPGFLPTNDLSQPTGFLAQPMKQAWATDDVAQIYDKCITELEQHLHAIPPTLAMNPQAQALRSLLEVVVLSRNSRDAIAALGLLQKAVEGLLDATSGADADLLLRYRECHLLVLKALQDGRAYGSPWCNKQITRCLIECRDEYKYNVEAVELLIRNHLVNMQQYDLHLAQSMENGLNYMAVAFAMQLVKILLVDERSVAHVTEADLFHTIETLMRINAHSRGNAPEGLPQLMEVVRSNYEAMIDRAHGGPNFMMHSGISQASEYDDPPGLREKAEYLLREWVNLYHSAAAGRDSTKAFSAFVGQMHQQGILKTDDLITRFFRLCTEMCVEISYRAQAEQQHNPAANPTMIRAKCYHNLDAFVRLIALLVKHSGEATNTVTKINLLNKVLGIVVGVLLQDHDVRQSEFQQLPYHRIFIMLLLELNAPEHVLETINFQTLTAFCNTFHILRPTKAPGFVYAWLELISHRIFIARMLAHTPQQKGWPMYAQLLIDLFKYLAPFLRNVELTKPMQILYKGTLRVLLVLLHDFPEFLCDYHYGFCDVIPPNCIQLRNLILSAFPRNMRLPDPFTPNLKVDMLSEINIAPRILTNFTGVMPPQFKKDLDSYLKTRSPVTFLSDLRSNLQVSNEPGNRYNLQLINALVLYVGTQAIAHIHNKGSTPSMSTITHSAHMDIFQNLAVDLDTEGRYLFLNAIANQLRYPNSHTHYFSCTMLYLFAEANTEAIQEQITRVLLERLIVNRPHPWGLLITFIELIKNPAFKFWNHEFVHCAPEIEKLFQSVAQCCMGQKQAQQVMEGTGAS
UniProt O75794: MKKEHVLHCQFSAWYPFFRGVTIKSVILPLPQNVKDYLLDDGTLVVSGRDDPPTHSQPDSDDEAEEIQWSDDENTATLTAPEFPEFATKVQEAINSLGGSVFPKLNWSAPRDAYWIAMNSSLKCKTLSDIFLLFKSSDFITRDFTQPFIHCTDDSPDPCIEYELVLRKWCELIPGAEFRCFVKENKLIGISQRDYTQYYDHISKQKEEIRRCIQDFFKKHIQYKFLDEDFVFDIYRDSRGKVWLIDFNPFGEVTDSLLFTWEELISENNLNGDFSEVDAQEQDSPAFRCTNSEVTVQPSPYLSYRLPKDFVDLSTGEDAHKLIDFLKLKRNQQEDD
UniProt Q9BSY4: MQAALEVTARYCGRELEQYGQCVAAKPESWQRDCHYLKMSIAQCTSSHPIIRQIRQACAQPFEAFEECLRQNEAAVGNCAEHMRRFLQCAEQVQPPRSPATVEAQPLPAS

compound: COc1ccc(Cn2ccc3ccc(C(=O)NO)cc32)cc1; experiment: dose-dependent thermal stabilisation call (2D-TPP, DLPTP, 10% FDR) (binary (1 = stabilised)); higher = stabilised by the compound; settings: system: HL-60 intact cells; concentration range 0.04-10 µM

| Target | dose-dependent thermal stabilisation call |
| --- | --- |
| CNBP (UniProt P62633) | inactive: 0 |
| CCND2 (UniProt P30279) | inactive: 0 |
| CEBPE (UniProt Q15744) | inactive: 0 |
| CFL2 (UniProt Q9Y281) | inactive: 0 |
| CHST11 (UniProt Q9NPF2) | inactive: 0 |
| CNPY3 (UniProt Q9BT09) | inactive: 0 |
| CCNA2 (UniProt P20248) | inactive: 0 |
| CHERP (UniProt Q8IWX8) | inactive: 0 |
| CCDC134 (UniProt Q9H6E4) | inactive: 0 |
| CNOT3 (UniProt O75175) | inactive: 0 |
| CLCN3 (UniProt P51790) | inactive: 0 |
| CDK5RAP1 (UniProt Q96SZ6) | inactive: 0 |
| CNNM2 (UniProt Q9H8M5) | inactive: 0 |
| CENPV (UniProt Q7Z7K6) | inactive: 0 |
| COL4A3BP (UniProt Q9Y5P4) | inactive: 0 |
| CDAN1 (UniProt Q8IWY9) | inactive: 0 |
| CLC (UniProt Q05315) | inactive: 0 |
| COG5 (UniProt Q9UP83) | inactive: 0 |
| CDC42 (UniProt P60953) | inactive: 0 |

| Target | dose-dependent thermal stabilisation call |
| --- | --- |
| CCDC41 (UniProt Q9Y592) | inactive: 0 |
| CCDC22 (UniProt O60826) | inactive: 0 |
| CLIC4 (UniProt Q9Y696) | inactive: 0 |
| COG3 (UniProt Q96JB2) | inactive: 0 |
| CLP1 (UniProt Q92989) | inactive: 0 |
| CD2BP2 (UniProt O95400) | inactive: 0 |
| CD48 (UniProt P09326) | inactive: 0 |
| CHAC2 (UniProt Q8WUX2) | inactive: 0 |
| CHKA (UniProt P35790) | inactive: 0 |
| CHST14 (UniProt Q8NCH0) | inactive: 0 |
| CHP (UniProt Q99653) | inactive: 0 |
| CEP76 (UniProt Q8TAP6) | inactive: 0 |
| CEPT1 (UniProt Q9Y6K0) | inactive: 0 |
| CNOT1 (UniProt A5YKK6) | inactive: 0 |
| CCDC132 (UniProt Q96JG6) | inactive: 0 |
| CDC123 (UniProt O75794) | inactive: 0 |
| CES2 (UniProt O00748) | inactive: 0 |
| CHCHD5 (UniProt Q9BSY4) | inactive: 0 |

Looked up one by one from the list above:

| Target | dose-dependent thermal stabilisation call |
| --- | --- |
| CCDC41 (UniProt Q9Y592) | inactive: 0 |
| CFL2 (UniProt Q9Y281) | inactive: 0 |
